The test deals with T1, Ffh, the protein of the signal recognition particle (SRP) (E. coli), P0AGD7.
T1 chain: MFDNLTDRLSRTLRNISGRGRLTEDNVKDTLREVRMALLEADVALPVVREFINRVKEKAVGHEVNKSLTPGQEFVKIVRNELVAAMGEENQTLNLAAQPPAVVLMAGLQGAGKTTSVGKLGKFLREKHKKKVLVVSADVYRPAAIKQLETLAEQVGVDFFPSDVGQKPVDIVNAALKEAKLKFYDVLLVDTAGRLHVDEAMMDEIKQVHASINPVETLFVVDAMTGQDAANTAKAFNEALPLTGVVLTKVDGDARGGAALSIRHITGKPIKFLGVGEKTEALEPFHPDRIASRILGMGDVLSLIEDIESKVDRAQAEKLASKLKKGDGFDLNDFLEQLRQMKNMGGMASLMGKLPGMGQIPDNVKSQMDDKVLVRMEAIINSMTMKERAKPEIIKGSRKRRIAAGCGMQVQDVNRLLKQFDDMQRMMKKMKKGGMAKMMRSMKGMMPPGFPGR
Nature of the test: cryo-EM structure; RNC-SRP-SR: RNC incubated with a 1:3 molar excess of SRP and SR, 37 °C 30 min then 4 °C 30 min, 250 nM; same buffer with 2 mM GMPNP; 'early' and 'closed' states, 3.8 and 3.7 Å; both purified. The conditions noted are these: remark: other sources report otherwise.

No constants are given. Whether binding was seen depends on the method and setting. Some entries that bind do so weakly or less than the wild type.

B1: FtsY, the SRP receptor (SR), P10121 1-497 (receptor)
chain: MAKEKKRGFFSWLGFGQKEQTPEKETEVQNEQPVVEEIVQAQEPVKASEQAVEEQPQAHTEAEAETFAADVVEVTEQVAESEKAQPEAEVVAQPEPVVEETPEPVAIEREELPLPEDVNAEAVSPEEWQAEAETVEIVEAAEEEAAKEEITDEELETALAAEAAEEAVMVVPPAEEEQPVEEIAQEQEKPTKEGFFARLKRSLLKTKENLGSGFISLFRGKKIDDDLFEELEEQLLIADVGVETTRKIITNLTEGASRKQLRDAEALYGLLKEEMGEILAKVDEPLNVEGKAPFVILMVGVNGVGKTTTIGKLARQFEQQGKSVMLAAGDTFRAAAVEQLQVWGQRNNIPVIAQHTGADSASVIFDAIQAAKARNIDVLIADTAGRLQNKSHLMEELKKIVRVMKKLDVEAPHEVMLTIDASTGQNAVSQAKLFHEAVGLTGITLTKLDGTAKGGVIFSVADQFGIPIRYIGVGERIEDLRPFKADDFIEALFARED
For the molecule B1, the binding entry is recorded as “binds”.

(Values after publication PMC4737761.)
